Some of the results follow.
Key:
Test in all cases: glycan array binding signal (z-score within array); higher = stronger binding
Settings in all cases: glycan notation: IUPAC condensed, linker removed
[1] = molecular target: Fuc(a1-2)Gal(b1-4)GlcNAc(b1-3)Gal(b1-4)GlcNAc(b1-3)Gal(b1-4)GlcNAc
Outline: (§1)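 The Consortium for Functional Glycomics database supplied 3228 glycan arrays, of which those lacking an available protein sequence were dropped. The binding signal, a within-array Z-score, was averaged across arrays of the same protein sequence and across linkers. Negative scores can be read as non-binding.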

[2] = molecular target: Fuc(a1-2)Gal(b1-4)GlcNAc(b1-3)GalNAc
Outline: as §1

[3] = molecular target: Fuc(a1-2)Gal(b1-4)GlcNAc(b1-3)[Fuc(a1-2)Gal(b1-4)GlcNAc(b1-6)]GalNAc
Outline: as §1

[4] = molecular target: Fuc(a1-2)Gal(b1-4)GlcNAc(b1-3)[Fuc(a1-3)[Gal(b1-4)]GlcNAc(b1-6)]Gal(b1-4)Glc
Outline: as §1

[5] = molecular target: Fuc(a1-2)Gal(b1-4)GlcNAc(b1-6)GalNAc
Outline: as §1

[6] = molecular target: Fuc(a1-2)Gal(b1-4)GlcNAc6S
Outline: as §1

[7] = molecular target: Fuc(a1-2)Gal(b1-4)[Fuc(a1-3)]GlcNAc
Outline: as §1

[8] = molecular target: Fuc(a1-2)Gal(b1-4)[Fuc(a1-3)]GlcNAc(b1-2)Man(a1-3)[Fuc(a1-2)Gal(b1-4)[Fuc(a1-3)]GlcNAc(b1-2)Man(a1-6)]Man(b1-4)GlcNAc(b1-4)[Fuc(a1-6)]GlcNAc
Outline: as §1

[9] = molecular target: Fuc(a1-2)Gal(b1-4)[Fuc(a1-3)]GlcNAc(b1-2)[Fuc(a1-2)Gal(b1-4)[Fuc(a1-3)]GlcNAc(b1-4)]Man(a1-3)[Fuc(a1-2)Gal(b1-4)[Fuc(a1-3)]GlcNAc(b1-2)Man(a1-6)]Man(b1-4)GlcNAc(b1-4)GlcNAc
Outline: as §1

[10] = molecular target: Fuc(a1-2)Gal(b1-4)[Fuc(a1-3)]GlcNAc(b1-3)Gal(b1-4)[Fuc(a1-3)]GlcNAc
Outline: as §1

[11] = molecular target: Fuc(a1-2)Gal(b1-4)[Fuc(a1-3)]GlcNAc(b1-3)Gal(b1-4)[Fuc(a1-3)]GlcNAc(b1-3)Gal(b1-4)[Fuc(a1-3)]GlcNAc
Outline: as §1

[12] = molecular target: Fuc(a1-2)Gal(b1-4)[Fuc(a1-3)]GlcNAc(b1-3)GalNAc
Outline: as §1

[13] = molecular target: Fuc(a1-2)Gal(b1-4)[Fuc(a1-3)]GlcNAc(b1-3)[Neu5Ac(a2-6)Gal(b1-4)GlcNAc(b1-6)]Gal(b1-4)Glc
Outline: as §1

[14] = molecular target: Fuc(a1-2)Gal3S(b1-4)GlcNAc
Outline: as §1

[15] = molecular target: Fuc(a1-2)Gal6S(b1-3)GlcNAc
Outline: as §1

[16] = molecular target: Fuc(a1-2)Gal6S(b1-3)GlcNAc6S
Outline: as §1

[17] = molecular target: Fuc(a1-2)Gal6S(b1-4)Glc
Outline: as §1

[18] = molecular target: Fuc(a1-2)Gal6S(b1-4)Glc6S
Outline: as §1

[19] = molecular target: Fuc(a1-2)[Gal(a1-3)]Gal
Outline: as §1

[20] = molecular target: Fuc(a1-2)[Gal(a1-3)]Gal(b1-3)GalNAc
Outline: as §1

[21] = molecular target: Fuc(a1-2)[Gal(a1-3)]Gal(b1-3)GalNAc(b1-3)Gal(a1-4)Gal(b1-4)Glc
Outline: as §1

[22] = molecular target: Fuc(a1-2)[Gal(a1-3)]Gal(b1-3)GlcNAc
Outline: as §1

[23] = molecular target: Fuc(a1-2)[Gal(a1-3)]Gal(b1-3)GlcNAc(b1-2)Man(a1-3)[Fuc(a1-2)[Gal(a1-3)]Gal(b1-3)GlcNAc(b1-2)Man(a1-6)]Man(b1-4)GlcNAc(b1-4)GlcNAc
Outline: as §1

[24] = molecular target: Fuc(a1-2)[Gal(a1-3)]Gal(b1-3)GlcNAc(b1-2)Man(a1-3)[Fuc(a1-2)[Gal(a1-3)]Gal(b1-3)GlcNAc(b1-2)Man(a1-6)]Man(b1-4)GlcNAc(b1-4)[Fuc(a1-6)]GlcNAc
Outline: as §1

[25] = molecular target: Fuc(a1-2)[Gal(a1-3)]Gal(b1-3)GlcNAc(b1-3)GalNAc
Outline: as §1

[26] = molecular target: Fuc(a1-2)[Gal(a1-3)]Gal(b1-3)GlcNAc(b1-6)GalNAc
Outline: as §1

[27] = molecular target: Fuc(a1-2)[Gal(a1-3)]Gal(b1-4)Glc
Outline: as §1

[28] = molecular target: Fuc(a1-2)[Gal(a1-3)]Gal(b1-4)GlcNAc
Outline: as §1

[29] = molecular target: Fuc(a1-2)[Gal(a1-3)]Gal(b1-4)GlcNAc(b1-2)Man
Outline: as §1

[30] = molecular target: Fuc(a1-2)[Gal(a1-3)]Gal(b1-4)GlcNAc(b1-2)Man(a1-3)[Fuc(a1-2)[Gal(a1-3)]Gal(b1-4)GlcNAc(b1-2)Man(a1-6)]Man(b1-4)GlcNAc(b1-4)GlcNAc
Outline: as §1

[31] = molecular target: Fuc(a1-2)[Gal(a1-3)]Gal(b1-4)GlcNAc(b1-2)Man(a1-3)[Fuc(a1-2)[Gal(a1-3)]Gal(b1-4)GlcNAc(b1-2)Man(a1-6)]Man(b1-4)GlcNAc(b1-4)[Fuc(a1-6)]GlcNAc
Outline: as §1

[32] = molecular target: Fuc(a1-2)[Gal(a1-3)]Gal(b1-4)GlcNAc(b1-3)GalNAc
Outline: as §1

[33] = molecular target: Fuc(a1-2)[Gal(a1-3)]Gal(b1-4)GlcNAc(b1-3)[Fuc(a1-2)[Gal(a1-3)]Gal(b1-4)GlcNAc(b1-6)]GalNAc
Outline: as §1

[34] = molecular target: Fuc(a1-2)[Gal(a1-3)]Gal(b1-4)GlcNAc(b1-6)GalNAc
Outline: as §1

[35] = molecular target: Fuc(a1-2)[Gal(a1-3)]Gal(b1-4)[Fuc(a1-3)]Glc
Outline: as §1

[36] = molecular target: Fuc(a1-2)[Gal(a1-3)]Gal(b1-4)[Fuc(a1-3)]GlcNAc
Outline: as §1

[37] = molecular target: Fuc(a1-2)[Gal(a1-3)]Gal(b1-4)[Fuc(a1-3)]GlcNAc(b1-3)GalNAc
Outline: as §1

[38] = molecular target: Fuc(a1-2)[Gal(a1-4)]Gal(b1-4)GlcNAc
Outline: as §1

[39] = molecular target: Fuc(a1-2)[GalNAc(a1-3)]Gal
Outline: as §1

[40] = molecular target: Fuc(a1-2)[GalNAc(a1-3)]Gal(b1-3)GalNAc(a1-3)[Fuc(a1-2)]Gal(b1-4)GlcNAc
Outline: as §1

[41] = molecular target: Fuc(a1-2)[GalNAc(a1-3)]Gal(b1-3)GalNAc(b1-3)Gal(a1-4)Gal(b1-4)Glc
Outline: as §1

[42] = molecular target: Fuc(a1-2)[GalNAc(a1-3)]Gal(b1-3)GlcNAc
Outline: as §1

[43] = molecular target: Fuc(a1-2)[GalNAc(a1-3)]Gal(b1-3)GlcNAc(b1-2)Man(a1-3)[Fuc(a1-2)[GalNAc(a1-3)]Gal(b1-3)GlcNAc(b1-2)Man(a1-6)]Man(b1-4)GlcNAc(b1-4)GlcNAc
Outline: as §1

[44] = molecular target: Fuc(a1-2)[GalNAc(a1-3)]Gal(b1-3)GlcNAc(b1-2)Man(a1-3)[Fuc(a1-2)[GalNAc(a1-3)]Gal(b1-3)GlcNAc(b1-2)Man(a1-6)]Man(b1-4)GlcNAc(b1-4)[Fuc(a1-6)]GlcNAc
Outline: as §1

[45] = molecular target: Fuc(a1-2)[GalNAc(a1-3)]Gal(b1-3)GlcNAc(b1-3)GalNAc
Outline: as §1

B1: PX14343E-bfa-545-24-545 (Bacteroides fragilis) (protein)
chain: LDRYPQEELSDGSFWKTPDDANKVVSDLYGYLSTWDQDNDINSDNATMGIKWAAGNVSKGIYDPADQGWSGDYANVRQCNLILSKIDEIPDYPEADKTKALGQVYFFRAYIYFNLIRSFGDVPYIDKPLDLKDMEGITRMPRAEVYEKIMADFDKAIAALPTEWGASDYGRVTKGAAMAMKARAALYYGNWDTAATEAKNVMDLGLYELYDKDNTGKYAELFWEKADGCDEFILVTQFNYPDKTHYLMGWECFPTKGWGGMNPTQSLVDAFEDSEGAPISKSKIYDPTDPFKNRDPRLEVDILHDGEEMYGVTIKVAPLASSGSTGINQHNDATETGYYGQKWLDPSLDPLSDGWNMGKDWVHIRYAEVLLTYAEAKNELQGLDPEAFDAVNQVRRRVGMPELQNTDPSKPTYCATQDDLRQRIRNEWRVEFCLEGGKRMWDIRRWGIAKDVLNAPFEGLKYKIVDNPNDPDKKVDGGKMCILYQGDPIILSGSRYSDNNYLFPVPQSEIDLNPALTQNPGY
- glycan array binding signal (z-score) [1]: -0.411
- glycan array binding signal (z-score) [2]: -0.093
- glycan array binding signal (z-score) [3]: -0.256
- glycan array binding signal (z-score) [4]: -0.108
- glycan array binding signal (z-score) [5]: -0.233
- glycan array binding signal (z-score) [6]: -0.655
- glycan array binding signal (z-score) [7]: -0.665
- glycan array binding signal (z-score) [8]: 0.859
- glycan array binding signal (z-score) [9]: 0.576
- glycan array binding signal (z-score) [10]: -0.32
- glycan array binding signal (z-score) [11]: -0.407
- glycan array binding signal (z-score) [12]: 2.28
- glycan array binding signal (z-score) [13]: -0.594
- glycan array binding signal (z-score) [14]: -0.775
- glycan array binding signal (z-score) [15]: -0.205
- glycan array binding signal (z-score) [16]: 0.338
- glycan array binding signal (z-score) [17]: 0.521
- glycan array binding signal (z-score) [18]: 0.393
- glycan array binding signal (z-score) [19]: -0.399
- glycan array binding signal (z-score) [20]: 0.163
- glycan array binding signal (z-score) [21]: -0.61
- glycan array binding signal (z-score) [22]: -0.073
- glycan array binding signal (z-score) [23]: -0.083
- glycan array binding signal (z-score) [24]: 0.769
- glycan array binding signal (z-score) [25]: -0.915
- glycan array binding signal (z-score) [26]: -0.703
- glycan array binding signal (z-score) [27]: -0.083
- glycan array binding signal (z-score) [28]: -0.855
- glycan array binding signal (z-score) [29]: -0.477
- glycan array binding signal (z-score) [30]: 0.381
- glycan array binding signal (z-score) [31]: 0.008
- glycan array binding signal (z-score) [32]: 0.425
- glycan array binding signal (z-score) [33]: 0.335
- glycan array binding signal (z-score) [34]: 0.034
- glycan array binding signal (z-score) [35]: -1
- glycan array binding signal (z-score) [36]: -0.721
- glycan array binding signal (z-score) [37]: -0.403
- glycan array binding signal (z-score) [38]: 0.32
- glycan array binding signal (z-score) [39]: -0.063
- glycan array binding signal (z-score) [40]: -0.41
- glycan array binding signal (z-score) [41]: -0.347
- glycan array binding signal (z-score) [42]: -0.23
- glycan array binding signal (z-score) [43]: 0.794
- glycan array binding signal (z-score) [44]: -0.147
- glycan array binding signal (z-score) [45]: 0.051
